This is an account of results in the supplement of paper PMC10849652.

Protein sequences, listed by entry. Tags and fused reporters are not part of them. Lines headed by an entry give the natural chain unless they say otherwise; changes in a name come on top.
UniProt Q9P2R6: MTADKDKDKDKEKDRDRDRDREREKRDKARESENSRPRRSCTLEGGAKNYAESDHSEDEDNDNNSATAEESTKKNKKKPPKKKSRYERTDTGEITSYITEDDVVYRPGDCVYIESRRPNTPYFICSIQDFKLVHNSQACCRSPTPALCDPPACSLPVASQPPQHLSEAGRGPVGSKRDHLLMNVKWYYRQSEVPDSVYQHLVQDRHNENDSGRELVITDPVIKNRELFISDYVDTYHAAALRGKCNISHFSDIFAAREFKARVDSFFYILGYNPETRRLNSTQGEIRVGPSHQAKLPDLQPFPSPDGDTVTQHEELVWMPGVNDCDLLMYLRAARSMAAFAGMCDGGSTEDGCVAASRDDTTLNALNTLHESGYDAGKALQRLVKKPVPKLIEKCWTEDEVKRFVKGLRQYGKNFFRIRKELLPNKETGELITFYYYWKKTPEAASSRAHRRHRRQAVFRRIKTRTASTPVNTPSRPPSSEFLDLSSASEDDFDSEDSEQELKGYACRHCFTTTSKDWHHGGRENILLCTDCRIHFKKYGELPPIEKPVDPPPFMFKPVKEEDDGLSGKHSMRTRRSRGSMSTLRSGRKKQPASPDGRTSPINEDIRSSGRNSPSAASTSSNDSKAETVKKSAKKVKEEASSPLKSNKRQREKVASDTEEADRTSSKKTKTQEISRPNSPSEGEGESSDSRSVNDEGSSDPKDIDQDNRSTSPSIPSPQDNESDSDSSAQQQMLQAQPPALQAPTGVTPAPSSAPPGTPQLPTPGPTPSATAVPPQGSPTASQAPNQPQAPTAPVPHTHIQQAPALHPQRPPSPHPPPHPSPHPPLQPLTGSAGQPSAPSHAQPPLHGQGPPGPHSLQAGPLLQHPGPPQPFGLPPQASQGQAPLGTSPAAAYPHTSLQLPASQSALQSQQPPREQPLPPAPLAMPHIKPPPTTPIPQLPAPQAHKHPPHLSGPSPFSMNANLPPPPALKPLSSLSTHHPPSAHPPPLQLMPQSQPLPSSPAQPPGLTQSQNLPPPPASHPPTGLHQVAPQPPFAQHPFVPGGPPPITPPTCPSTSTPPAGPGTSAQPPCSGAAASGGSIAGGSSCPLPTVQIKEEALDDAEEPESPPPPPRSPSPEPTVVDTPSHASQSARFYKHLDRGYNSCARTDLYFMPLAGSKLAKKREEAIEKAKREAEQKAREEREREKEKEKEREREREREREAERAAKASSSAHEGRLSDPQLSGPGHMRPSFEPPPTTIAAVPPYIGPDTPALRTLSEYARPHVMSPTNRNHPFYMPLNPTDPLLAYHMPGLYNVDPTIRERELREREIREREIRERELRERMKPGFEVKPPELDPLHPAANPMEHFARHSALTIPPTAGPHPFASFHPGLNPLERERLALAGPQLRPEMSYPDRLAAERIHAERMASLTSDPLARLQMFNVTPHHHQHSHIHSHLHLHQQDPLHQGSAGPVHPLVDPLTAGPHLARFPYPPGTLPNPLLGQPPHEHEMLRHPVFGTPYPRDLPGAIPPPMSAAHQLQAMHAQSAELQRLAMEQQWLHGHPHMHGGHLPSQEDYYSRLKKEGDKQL
UniProt Q86XS8: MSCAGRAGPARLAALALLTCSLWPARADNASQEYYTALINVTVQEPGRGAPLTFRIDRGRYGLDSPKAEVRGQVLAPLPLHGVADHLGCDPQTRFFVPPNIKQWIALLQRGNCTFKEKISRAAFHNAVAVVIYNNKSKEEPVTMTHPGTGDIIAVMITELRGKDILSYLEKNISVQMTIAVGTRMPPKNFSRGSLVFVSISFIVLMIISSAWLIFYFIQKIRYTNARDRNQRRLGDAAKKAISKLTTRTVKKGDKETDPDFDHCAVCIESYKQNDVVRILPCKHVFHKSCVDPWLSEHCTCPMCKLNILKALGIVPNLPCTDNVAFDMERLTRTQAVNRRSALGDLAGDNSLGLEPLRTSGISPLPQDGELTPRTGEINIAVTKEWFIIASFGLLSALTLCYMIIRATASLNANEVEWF
UniProt O43567: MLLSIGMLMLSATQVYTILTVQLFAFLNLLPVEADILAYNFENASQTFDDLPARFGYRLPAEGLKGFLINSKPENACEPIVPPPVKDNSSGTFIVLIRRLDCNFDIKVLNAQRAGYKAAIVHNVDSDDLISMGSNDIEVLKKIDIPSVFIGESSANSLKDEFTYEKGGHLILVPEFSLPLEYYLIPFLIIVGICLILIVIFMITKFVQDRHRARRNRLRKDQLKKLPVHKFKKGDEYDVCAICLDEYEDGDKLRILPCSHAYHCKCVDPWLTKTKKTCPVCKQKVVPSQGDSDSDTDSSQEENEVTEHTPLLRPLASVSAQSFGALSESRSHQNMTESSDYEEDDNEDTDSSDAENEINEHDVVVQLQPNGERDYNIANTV
UniProt Q8WU17: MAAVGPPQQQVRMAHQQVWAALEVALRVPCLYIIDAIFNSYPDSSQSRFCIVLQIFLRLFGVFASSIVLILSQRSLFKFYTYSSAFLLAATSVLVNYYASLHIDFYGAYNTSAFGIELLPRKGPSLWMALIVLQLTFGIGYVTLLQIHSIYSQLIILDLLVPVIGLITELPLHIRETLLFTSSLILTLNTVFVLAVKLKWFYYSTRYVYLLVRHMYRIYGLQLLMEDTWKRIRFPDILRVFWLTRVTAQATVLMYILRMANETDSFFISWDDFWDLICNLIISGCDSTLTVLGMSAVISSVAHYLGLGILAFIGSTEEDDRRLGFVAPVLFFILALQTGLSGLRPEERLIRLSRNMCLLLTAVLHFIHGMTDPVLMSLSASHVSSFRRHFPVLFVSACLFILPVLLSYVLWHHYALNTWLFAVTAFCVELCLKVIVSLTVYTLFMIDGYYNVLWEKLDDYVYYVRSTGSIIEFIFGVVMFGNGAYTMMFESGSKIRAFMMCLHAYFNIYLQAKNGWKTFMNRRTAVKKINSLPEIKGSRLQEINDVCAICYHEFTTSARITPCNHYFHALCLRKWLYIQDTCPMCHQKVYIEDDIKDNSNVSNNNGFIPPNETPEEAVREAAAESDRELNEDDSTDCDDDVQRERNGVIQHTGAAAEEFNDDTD
UniProt Q5TA31: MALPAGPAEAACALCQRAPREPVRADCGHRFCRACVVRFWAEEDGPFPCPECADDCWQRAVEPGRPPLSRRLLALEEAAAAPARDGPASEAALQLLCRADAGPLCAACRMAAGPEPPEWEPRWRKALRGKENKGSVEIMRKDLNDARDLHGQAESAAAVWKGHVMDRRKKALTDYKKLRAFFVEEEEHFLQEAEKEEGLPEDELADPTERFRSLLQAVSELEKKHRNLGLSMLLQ
UniProt Q9ULI2: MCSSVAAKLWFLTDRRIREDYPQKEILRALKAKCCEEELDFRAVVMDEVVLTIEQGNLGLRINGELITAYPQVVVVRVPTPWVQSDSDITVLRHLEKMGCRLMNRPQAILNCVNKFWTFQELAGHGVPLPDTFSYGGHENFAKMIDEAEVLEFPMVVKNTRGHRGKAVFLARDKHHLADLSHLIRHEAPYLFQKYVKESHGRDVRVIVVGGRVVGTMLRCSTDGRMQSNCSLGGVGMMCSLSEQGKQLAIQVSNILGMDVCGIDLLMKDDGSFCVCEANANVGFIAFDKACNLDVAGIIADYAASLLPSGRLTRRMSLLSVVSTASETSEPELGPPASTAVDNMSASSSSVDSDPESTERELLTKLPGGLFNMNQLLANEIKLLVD
UniProt Q9Y225: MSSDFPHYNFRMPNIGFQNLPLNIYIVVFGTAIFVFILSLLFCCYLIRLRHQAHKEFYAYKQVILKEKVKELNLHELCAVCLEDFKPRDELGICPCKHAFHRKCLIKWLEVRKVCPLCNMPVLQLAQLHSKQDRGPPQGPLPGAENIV
UniProt P82980: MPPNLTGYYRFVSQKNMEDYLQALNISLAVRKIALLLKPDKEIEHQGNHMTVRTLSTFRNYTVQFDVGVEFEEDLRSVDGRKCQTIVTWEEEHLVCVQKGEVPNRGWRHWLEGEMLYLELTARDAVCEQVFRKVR
UniProt A6NEQ0: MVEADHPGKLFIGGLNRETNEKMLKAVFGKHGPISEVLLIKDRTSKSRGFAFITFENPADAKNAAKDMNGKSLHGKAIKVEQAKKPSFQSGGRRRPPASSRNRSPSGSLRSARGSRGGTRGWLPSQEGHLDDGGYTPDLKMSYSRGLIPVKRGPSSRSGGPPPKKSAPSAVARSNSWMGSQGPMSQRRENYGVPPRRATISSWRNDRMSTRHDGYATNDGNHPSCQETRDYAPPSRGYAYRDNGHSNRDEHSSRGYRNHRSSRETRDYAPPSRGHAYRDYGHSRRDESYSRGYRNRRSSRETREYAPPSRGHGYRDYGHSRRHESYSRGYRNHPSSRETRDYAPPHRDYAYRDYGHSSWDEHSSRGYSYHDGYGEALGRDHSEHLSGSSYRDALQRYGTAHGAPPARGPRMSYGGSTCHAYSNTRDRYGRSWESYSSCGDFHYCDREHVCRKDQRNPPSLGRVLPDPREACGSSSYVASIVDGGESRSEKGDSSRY

Assay in all cases: log2 fold change, soluble protein after heating vs DMSO (PISA); higher = thermal stabilisation; K562 cells, 10 uM, 30 min; active = over 0.2 and 3.5 SD of the protein, either way, in both replicates (recomputed)
Compound in one experiment: C1COCCN1CCN2C3=CC=CC=C3N=C2NC(=O)C4=CC(=CC=C4)[N+](=O)[O-] [IRAK-1-4 Inhibitor I]
The procedure, abridged: (§1)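 Thermal stability values are relative to control samples and come from duplicates. They are expressed as log2 fold changes. For measurement, K562 cells (2×10^6 cells/mL) received 10 μM compound for 30 min, and aliquots were heated for 3 min over 48°C-58°C, pooled, and extracted at 4°C in PBS with 0.5% NP-40. Soluble protein, the supernatant after 21,000xg for 90 min, was quantified by TMTpro 16plex LC-MS/MS with equalised channel sums.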

Compound in a further experiment: C=CC(=O)N1CCC[C@@H](n2nc(-c3ccc(Oc4ccccc4)cc3)c3c(N)ncnc32)C1 [ibrutinib]
The procedure, abridged:
as §1

Compound in a further experiment: CC(C)(C)Cn1c(N)nc2ccc(-c3[nH]c(C(C)(C)C)nc3-c3ccc(F)cc3)nc21 [ralimetinib]
Summed up:
as §1

Compound in experiment [1]: CC(C)(O)CC(=O)NCCn1ccc2ncnc(Nc3ccc(Oc4cccc(C(F)(F)F)c4)c(Cl)c3)c21
Summed up: as §1

Compound in experiment [2]: CC(C)C1=C2N=C(C=C(N2N=C1)NCC3=CC=CC=C3)NCCCCCCN
Summed up: as §1

Compound in experiment [3]: CC(C)C[C@@H](C=O)NC(=O)[C@H](CC(C)C)NC(=O)[C@H](CC(C)C)NC(=O)OCc1ccccc1
Summed up:
as §1

Compound in another experiment: CC(C)N(C[C@H]1O[C@@H](n2cnc3c(N)ncnc32)[C@H](O)[C@@H]1O)[C@H]1C[C@@H](CCc2nc3cc(C(C)(C)C)ccc3[nH]2)C1 [pinometostat]
Summed up:
as §1

Compound in experiment [4]: CC1=C(C(CC(=O)N1)C2=CC=C(C=C2)C(F)(F)F)C(=O)NC3=C(C=C4C(=C3)C=NN4)F
Summed up: as §1

Compound in experiment [5]: CC1=C(C=C(C=C1)NC(=O)C2=CC(=CC=C2)C(C)(C)C#N)NC3=CC4=C(C=C3)N=CN(C4=O)C
The procedure, abridged:
as §1

Compound in experiment [6]: CC1=C(C=C(C=C1)NC(=O)C2=CC(=CC=C2)N(C)C)NC(=O)C3=CC=C(C=C3)O
The procedure, abridged:
as §1

Compound in experiment [7]: CC1=NC(=CC=C1)C2=C(N=C(N2)C(C)(C)C)C3=CC4=NC=CN=C4C=C3
The procedure, abridged: as §1

Compound in the next experiment: CCCCN(Cc1ccc(C(=O)NO)cc1)C(=O)Nc1ccccc1 [Nexturastat A]
Summed up:
as §1

Compound in experiment [8]: CCCc1cc(C)[nH]c(=O)c1CNC(=O)c1cc(-c2ccnc(N3CCN(C)CC3)c2)cc2c1cnn2C(C)C
Summed up:
as §1

Compound in another experiment: CCN(CC)Cc1ccc2cc(COC(=O)Nc3ccc(C(=O)NO)cc3)ccc2c1 [givinostat]
The procedure, abridged: as §1

Compound in another experiment: CCN(CCCOc1ccc2c(Nc3cc(CC(=O)Nc4cccc(F)c4)[nH]n3)ncnc2c1)CCOP(=O)(O)O [barasertib]
The procedure, abridged:
as §1

Compound in experiment [9]: CC1=CC=C(C=C1)SC2=C3C=C(SC3=CN=C2)C(=O)N
The procedure, abridged:
as §1

Compound in experiment [10]: CCCS(=O)(=O)Nc1ccc(F)c(C(=O)c2c[nH]c3ncc(Cl)cc23)c1F
Summed up:
as §1

Compound in experiment [11]: CC(=O)c1cnc2ccc(-c3cc(Cl)c(O)c(Cl)c3)nc2c1N[C@H]1CC[C@H](CN(C)C)CC1
Summed up: as §1

Compound in experiment [12]: CC1=C(C2=C(C=C1)C(=O)C3=CC=CC=C3N2CCCN)C
Summed up:
as §1

Compound in another experiment: CCCS(=O)(=O)Nc1ccc(F)c(C(=O)c2c[nH]c3ncc(-c4ccc(Cl)cc4)cc23)c1F [vemurafenib]
Summed up:
as §1

This is one part of the list. Residues, ends and D or L forms follow the SMILES beside them. *: point of attachment. Cbz = O=C(OCc1ccccc1)*

As to RERE (UniProt Q9P2R6), the log2 fold change is inactive: -0.023 with IRAK-1-4 Inhibitor I; inactive: -0.003 in the experiment with ibrutinib; inactive: -0.033 with ralimetinib; inactive: 0.013 in [1]; inactive: 0.099 in [2]; inactive: 0.169 in [3]. In addition, the log2 fold change with pinometostat is inactive: 0.099; in experiment [4], inactive: -0.018; in experiment [5] it was inactive: -0.064; in experiment [6], inactive: -0.083; in experiment [7], inactive: 0; with Nexturastat A, inactive: 0.039. The log2 fold change in experiment [8] is inactive: 0.123; with givinostat, inactive: 0.133; in the experiment with barasertib, inactive: 0.145.

On to RNF130 (UniProt Q86XS8), for which the log2 fold change was inactive: 0.001 in the experiment with IRAK-1-4 Inhibitor I; inactive: -0.24 with ibrutinib; inactive: 0.04 in [2]; inactive: -0.041 with pinometostat; inactive: 0 in experiment [9]; inactive: -0.406 in experiment [7]. The log2 fold change was inactive: -0.105 in experiment [10], inactive: 0.19 in [8], inactive: -0.046 in the experiment with givinostat and inactive: 0.015 in the experiment with barasertib.

With RNF13 (UniProt O43567), the log2 fold change was inactive: 0.098 with IRAK-1-4 Inhibitor I; inactive: -0.059 with ibrutinib; inactive: 0.005 in experiment [11]; inactive: 0.08 in [1]; inactive: 0.051 with pinometostat; inactive: 0.093 in [12]. For the same target, the log2 fold change in experiment [5] was inactive: -0.06; in [7] it was inactive: -0.042; in the experiment with Nexturastat A, inactive: -0.036; in the experiment with vemurafenib it was inactive: -0.023; with barasertib, inactive: -0.006.

For the target RNF139 (UniProt Q8WU17), the log2 fold change was inactive: 0.013 in the experiment with IRAK-1-4 Inhibitor I; inactive: -0.073 with ibrutinib; inactive: 0.015 with ralimetinib; inactive: 0.024 in experiment [1]; inactive: -0.026 in experiment [2]; inactive: -0.035 in experiment [3]. Besides, the log2 fold change with pinometostat is inactive: -0.027; in experiment [4], inactive: 0.003; in [12], inactive: 0.056; in [5], inactive: 0.093; in experiment [6], inactive: -0.007; in experiment [7], inactive: -0.046. In addition, the log2 fold change with Nexturastat A is inactive: -0.031; with vemurafenib, inactive: -0.01; in [8] it was inactive: -0.107; with givinostat, inactive: 0.05; with barasertib, inactive: 0.036.

Take RNF187 (UniProt Q5TA31): the log2 fold change is inactive: 0.059 with IRAK-1-4 Inhibitor I; inactive: 0.045 with ibrutinib; inactive: -0.124 in [11]; inactive: 0.039 with ralimetinib; inactive: 0.024 in experiment [1]; inactive: 0.077 in [2]. Besides, the log2 fold change in experiment [3] was active: 0.424; in the experiment with pinometostat, inactive: -0.075; in experiment [12] it was inactive: -0.226; in [5] it was inactive: -0.074; in experiment [6], inactive: -0.102; in [9], inactive: 0.048. In addition, the log2 fold change in experiment [7] is inactive: -0.005; in the experiment with Nexturastat A, inactive: 0.085; in the experiment with vemurafenib, inactive: -0.106; in experiment [10], inactive: 0.039; in [8] it was inactive: 0; in the experiment with givinostat, inactive: 0.036. Also, in the experiment with barasertib, the log2 fold change was inactive: 0.041.

Turning to RIMKLB (UniProt Q9ULI2), the log2 fold change with IRAK-1-4 Inhibitor I was inactive: 0.033; with ibrutinib, inactive: -0.164; in [1], inactive: 0.259; in [2], inactive: -0.038; in the experiment with pinometostat it was inactive: -0.019; in [4], inactive: -0.005. Moreover, the log2 fold change in experiment [5] was inactive: 0.077; in [9] it was inactive: 0.012; in experiment [7], inactive: 0.12; in the experiment with Nexturastat A, inactive: -0.179; in experiment [10], inactive: -0.032; in [8], inactive: -0.071. Moreover, the log2 fold change with givinostat is inactive: -0.022; with barasertib, inactive: 0.068.

For RNF24 isoform 2 (UniProt Q9Y225), the log2 fold change with IRAK-1-4 Inhibitor I is inactive: -0.076; with ibrutinib it was inactive: -0.095; with ralimetinib it was inactive: 0.036; in experiment [1], inactive: -0.242; in [2], inactive: 0.019; in [3], inactive: -0.068. Further, the log2 fold change is inactive: 0.014 with pinometostat; inactive: 0.153 in [4]; inactive: -0.066 in [6]; inactive: -0.123 in experiment [9]; inactive: -0.024 in [7]; inactive: -0.097 with Nexturastat A. In addition, the log2 fold change was inactive: -0.119 in the experiment with vemurafenib, inactive: -0.296 in experiment [10], inactive: -0.006 in the experiment with givinostat and inactive: -0.023 with barasertib.

For RBP5 (UniProt P82980), the log2 fold change in the experiment with IRAK-1-4 Inhibitor I was inactive: -0.105; in the experiment with ibrutinib, inactive: 0.155; in experiment [11], inactive: -0.008; in [1] it was inactive: -0.032; in [2] it was inactive: -0.019; with pinometostat it was inactive: -0.062. Further, the log2 fold change in [4] was inactive: 0.028; in [12] it was inactive: -0.094; in experiment [5], inactive: -0.068; in experiment [9], inactive: -0.063; in experiment [7], inactive: 0.02; in the experiment with Nexturastat A, inactive: 0.164. Further, the log2 fold change is inactive: -0.01 in experiment [10], inactive: -0.09 in experiment [8], inactive: -0.104 with givinostat and inactive: 0.047 in the experiment with barasertib.

For RBMY1E (UniProt A6NEQ0), the log2 fold change with IRAK-1-4 Inhibitor I was inactive: 0.019; with ibrutinib, inactive: -0.024; with ralimetinib it was inactive: 0.131; in experiment [2] it was inactive: 0.134; in experiment [3] it was inactive: 0.141; with pinometostat, inactive: -0.032. Besides, the log2 fold change is inactive: -0.01 in experiment [12]; inactive: 0.009 in [6]; inactive: 0.183 in [9]; inactive: 0.075 in experiment [7]; inactive: 0.082 in experiment [10]; inactive: -0.023 in [8]. Moreover, the log2 fold change in the experiment with givinostat is inactive: 0.059; in the experiment with barasertib, inactive: 0.135.
